According to PubChem BioAssay AID540276 (National Center for Advancing Translational Sciences (NCATS), 2011):
Where “and” joins values, the source holds several entries; their conditions need not be identical. Equal entries are not always repeated. The campaign covered roughly 300,000 compounds. About 5,400 (1.8%) were called active. This list was built around the results that the source calls inconclusive (neither active nor inactive); the mix of calls is not that of the screen. Calls follow the shape of the full dose curve; tested in HEK293 cells. A potency beside an inconclusive call is a rough fit, not a confirmed value.

experiment: qHTS for inhibitors of binding or entry into cells for Marburg Virus; settings: Marburg virus pseudotyped entry inhibition, cell reporter; series mostly up to 37.8 µM
Potency is read from the fitted curve at half-maximal effect.

| SMILES | Potency |
| --- | --- |
| CN(CC(O)COc1ccccc1F)C1CCCCC1 (stereo not given) | inconclusive: 35.5 µM [inhibitor, single point] |
| O=[N+]([O-])c1cccc(/C=N/N2CCN(Cc3ccccc3)CC2)c1 | inconclusive: 12.6 µM [activator, single point] |
| N#Cc1c(NC(=O)c2cccnc2)sc2c1CCC2 | inconclusive: 1.12 µM [inhibitor, partial curve, poor fit] |
| CCC(=O)N1CCc2cc(Br)cc(S(=O)(=O)N3CCN(c4cccc(Cl)c4)CC3)c21 | inactive |
| COc1ccc2c(CC(=O)Nc3ncc(C)s3)coc2c1 | inconclusive: 2.82 µM [activator, full curve, poor fit] |
| CCC(Oc1ccc2c(=O)c(-c3ccccc3OC)coc2c1)C(=O)OCc1ccccc1 (stereo not given) | inconclusive: 14.1 µM [inhibitor, single point] |
| COc1ccccc1-c1cc(C(F)(F)F)nc(NCc2cccs2)n1 | inconclusive: 0.316 µM [inhibitor, partial curve, poor fit] |
| CC(=O)Nc1cccc(OCCCNC(=O)c2cccc3ccccc23)c1 | inconclusive: 14.1 µM [activator, single point] |
| COc1ccccc1N1CC(C(=O)Nc2cccc(C(=O)O)c2)CC1=O (stereo not given) | inconclusive: 1.12 µM [inhibitor, partial curve, poor fit] |
| CC(=O)c1cccc(NC(=O)c2csc3c2CCCCC3)c1 | inconclusive: 0.562 µM [inhibitor, partial curve, poor fit] |
| CCCCC(=O)Nc1cccc(NC(=S)NC(C)=O)c1 | inconclusive: 3.55 µM [activator, single point] |
| COc1cccc(NC(=O)CNC(=O)c2cccs2)c1 | inactive |
| Cc1cccc(-c2cc(N)n(-c3ccccc3)n2)c1 | inconclusive: 5.01 µM [inhibitor, partial curve, poor fit] |
| Cn1c(O)c(/C=C2\C=Nc3ccc(Br)cc32)c(=O)n(C)c1=O | inactive |
| COc1cc(-c2nc(CN3CCN(CC(C)C)C(=O)[C@@H]3C)c(C)o2)ccc1F | inconclusive: 2.51 µM [inhibitor, full curve, poor fit] |
| O=S(=O)(NCC1CCCO1)c1ccc(S(=O)(=O)N(Cc2ccc(F)cc2)Cc2ccccn2)cc1 (stereo not given) | inconclusive: 35.5 µM [activator, single point] |
| COC(=O)/C=C1\N/C(=N\c2nc(C)cc(C)n2)N(c2ccc(C)c(C)c2)C1=O | inactive |
| S=c1nc[nH]c2c1cnn2Cc1ccccc1 | inconclusive: 17.8 µM [inhibitor, single point] |
| Cc1cc(C(=O)CN2C(=O)NC3(CCCc4ccccc43)C2=O)c(C)n1Cc1ccccc1 (stereo not given) | inactive |
| COc1ccc(OC)c(NC(=O)C2CCN(Cc3cnn(-c4ccccc4)c3-n3cccc3)CC2)c1 | inconclusive: 18.3 µM [inhibitor, partial curve, poor fit] |
| CCOc1ccc(NC(=O)c2ccccc2NC(=O)CN(C)CC(=O)Nc2ccc(C)cc2)cc1 | inactive |
| COc1ccc(C(=O)Cn2c(C)nc([N+](=O)[O-])c2Br)cc1 | inactive |
| CN1CCc2c(sc(N)c2C(N)=O)C1 | inactive |

In a second layout: results already given
O=S(=O)(NCC1CCCO1)c1ccc(S(=O)(=O)N(Cc2ccc(F)cc2)Cc2ccccn2)cc1 (stereo not given)
  Potency: inconclusive: 35.5 µM [activator, single point]
COC(=O)/C=C1\N/C(=N\c2nc(C)cc(C)n2)N(c2ccc(C)c(C)c2)C1=O
  Potency: inactive
S=c1nc[nH]c2c1cnn2Cc1ccccc1
  Potency: inconclusive: 17.8 µM [inhibitor, single point]
Cc1cc(C(=O)CN2C(=O)NC3(CCCc4ccccc43)C2=O)c(C)n1Cc1ccccc1 (stereo not given)
  Potency: inactive

(list continues)

| SMILES | Potency |
| --- | --- |
| N#Cc1ccc(C2N=C(c3ccccc3)NO2)cc1 (stereo not given) | inconclusive: 2 µM [activator, partial curve, poor fit] |
| Cc1nc2cc(C)c(C)cc2s1 | inactive |
| Cc1ccc(CNc2nc3nc(C)c(Cl)c(C)n3n2)cc1 | inconclusive: 3.16 µM [activator, single point] |
| N#CC(CO)(Cc1ccc(OC(F)F)cc1)c1nc2ccccc2[nH]1 (stereo not given) | inconclusive: 2.51 µM [inhibitor, full curve, poor fit] |
| O=C(CN1CCCc2ccccc21)N/N=C/c1ccccc1 | inconclusive: 0.562 µM [activator, full curve, poor fit] |
| CC(=O)[C@]12C[C@]3(C)CCCN(C(=O)N[C@@H]1c1ccccc1)C32 (stereo not given in full) | inactive |
| CCOc1ccc(NC(=O)C[n+]2ccc(N(C)C)cc2)cc1 | inactive |
| O=C(CSc1nc2c(sc3ccccc32)c(=O)n1CCCN1CCOCC1)NCC1CCCO1 (stereo not given) | inconclusive: 5.62 µM [inhibitor, partial curve, poor fit] |
| Cc1nn(-c2ccccc2)nc1-c1nnc(-c2ccc(C(F)(F)F)cc2)o1 | inconclusive: 0.316 µM [inhibitor, partial curve, poor fit] |
| C#CCSc1nnc(-c2ccccc2)c(=O)[nH]1 | inactive |
| O=C(CSc1ccc(Br)cc1)N1CCOCC1 | inconclusive: 2.51 µM [activator, partial curve, poor fit] |
| CN(C)S(=O)(=O)c1ccc(Cl)c(NC(=O)CSc2nc3c(cc2C#N)C(=O)CC(C)(C)C3)c1 | inactive |
| COc1ccc(Nc2nc(NC(C)(C)C)nc(N3CCCC3)n2)c(OC)c1 | active: 5.17 µM |
| COc1cc(/C=N\NC(=O)CC#N)ccc1OC/C=C/c1ccccc1 | inactive |
| Cc1ccc(-n2nnnc2CNC(=O)c2ccc([N+](=O)[O-])o2)cc1C | inconclusive: 22.4 µM [inhibitor, single point] |
| COc1ccc(Cl)cc1C(=O)Nc1ccccc1N1CCN(C)CC1 | inconclusive: 35.5 µM [inhibitor, partial curve, poor fit] |
| Cc1cc(C)c(C)c(S(=O)(=O)N2CCN(c3ccc(O)cc3)CC2)c1C | inconclusive: 8.91 µM [inhibitor, partial curve, poor fit] |
| CC1=C(C(=O)OC2CCCCCC2)C(c2c(Cl)cccc2Cl)CC(=O)N1 (stereo not given) | inconclusive: 35.5 µM [inhibitor, single point] |
| Cc1nc2c(ccc3nc(NC(=O)c4ccc5c(c4)OCCO5)sc32)s1 | inactive and inconclusive: 29.1 µM [inhibitor, single point] |
| CCOC(=O)c1ccc(NC(=O)COc2ccccc2CNC2CCCC2)cc1 | active: 8.91 µM |
| CCOC(=O)NN=Cc1ccccc1-c1cc(OC)ccc1OC | inactive |
| CCOc1ccc(C2CC(=O)c3c([nH]c(C(=O)OC4CCCCCC4)c3C)C2)cc1 (stereo not given) | inactive |
